# Source: PubChem BioAssay AID504467 (National Center for Advancing Translational Sciences (NCATS), 2011)
# About 7,700 (2.3%) of roughly 330,000 compounds were called active. Inconclusive means that the source gave no clear call. Such entries were picked first, then a sample of the others. Calls come from the whole dose curve; as a rule, active = well fitted inhibition curve with a large enough effect; inconclusive = small, poorly fitted or top-dose-only effect, or effect the other way; inactive = flat fitted curve, though single readings scatter. Where the call is inconclusive, the potency comes from a doubtful curve fit.
# Assay: qHTS screen for small molecules that inhibit ELG1-dependent DNA repair in human embryonic kidney (HEK293T) cells expressing luciferase-tagged ELG1; note: nearly all actives have a fitted effect of over 55% in size
# Conditions: HEK293T ELG1-luciferase reporter, luminescence, 16 h, DNA damage induced by 5-fluorouridine; activity change, negative = inhibition: at 46.1 µM (top of the series)
# Summary of the method: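 Cells (2,000 per well) received 5-fluorouridine plus test compound or DMSO and were incubated 16 hr at 37 °C, 5% CO2. Luciferase activity was read by luminescence 30 min after ONE-Glo addition; signal suppression marked inhibition of damage-induced ELG1 function.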
# % is set by controls: 0 for no effect and ±100 for the full control effect; potency is the fitted concentration of half-maximal effect.
Compound,Potency,"activity change, negative = inhibition"
COc1cc(-c2nc(C(=O)NC3CCN(Cc4ccccc4)CC3)cc3c2[nH]c2ccccc23)cc(OC)c1OC,"inconclusive: 14.6 µM [inhibitor, single point]",
Cc1cccc(-c2c(NC(=O)c3ccco3)oc3c(C)cccc3c2=O)c1,inactive,
Cn1ncc2c(Nc3cccc(Cl)c3)nc(Nc3cccc(Cl)c3)nc21,"inconclusive: 23.1 µM [inhibitor, single point]",
CCC(/C=C1\Sc2ccc(OC)cc2N1CCO)=C\c1sc2ccc(OC)cc2[n+]1CCO,"inconclusive: 18.4 µM [inhibitor, partial curve]",
Cc1ccc(O)c(N=Cc2cccs2)c1,"inconclusive: 23.1 µM [activator, single point]",
c1ccc(-n2c(SCc3nc(-c4cccs4)no3)nnc2-c2ccco2)cc1,"inconclusive: 8.2 µM [inhibitor, single point]",
c1ccc(CCNc2nc3ccccc3n3nnnc23)cc1,"inconclusive: 20.6 µM [activator, single point]",
COc1ccc2cc3c(N)nn(C(=O)c4ccc(Cl)c([N+](=O)[O-])c4)c3nc2c1,active: 1.64 µM,
Oc1ccc(-c2cnc(-c3ccc(O)cc3)nc2)cc1,"inconclusive: 0.58 µM [activator, full curve]",
O=C(Nc1cccc(-c2cn3cccnc3n2)c1)Nc1ccccc1F,"inconclusive: 23.1 µM [inhibitor, single point]",
CCOc1ccc(C(=O)Nc2nnc(SCC(=O)NCC3CCCO3)s2)cc1OCC (stereo not drawn),inactive,
O=C(Nc1ccc(OC(F)(F)F)cc1)c1ccc2nccnc2c1,"inconclusive: 29.1 µM [inhibitor, single point]",
CSc1nc2nc3c(cc2c(=O)n1-c1ccc(C)cc1)COC(C)(C)C3,"inconclusive: 18.3 µM [inhibitor, partial curve, poor fit]",
CCOc1ccc(N2C(=O)CC(SC(=NC)Nc3cccc(F)c3)C2=O)cc1 (stereo not drawn),inactive,
CC1CC(C)CN(CCCNC(=O)CN2C(=O)c3cccnc3Oc3ccc(Cl)cc32)C1 (stereo not drawn),inactive,
COc1cccc(Oc2nccc(N(C)C)c2C#N)c1,"inconclusive: 20.6 µM [activator, single point]",
CC(C)c1ccc(NC(=S)NNc2ccc(Cl)c(C(=O)O)c2)cc1,"inconclusive: 20.6 µM [activator, single point]",
CC(=O)Nc1ccc2[nH]c(C)cc(=O)c2c1,inactive,
COc1ccc(N2CCN(CCNC(=O)Nc3ccc(Cl)cc3)CC2)cc1,"inconclusive: 10.3 µM [inhibitor, partial curve]",
CCOc1ccc(C(=O)Nc2ccc(NC(=S)NC(=O)CC)cc2)cc1Cl,inactive,
Cc1ccc(Nc2nc(N3CCOCC3)nc(N3CCOCC3)n2)cc1,"inconclusive: 5.17 µM [inhibitor, partial curve, poor fit]",
Cc1ccc(NC(=O)CCc2ccc(S(=O)(=O)N3CCOCC3)cc2)c(O)c1,"inconclusive: 20.6 µM [inhibitor, partial curve, poor fit]",

# Copied from the list.
# In Potency, `Oc1ccc(-c2cnc(-c3ccc(O)cc3)nc2)cc1` is listed with inconclusive: 0.58 µM [activator, full curve]
# In Potency, `Cc1cccc(-c2c(NC(=O)c3ccco3)oc3c(C)cccc3c2=O)c1` is listed with inactive

# Next part

Compound,Potency,"activity change, negative = inhibition"
Cn1c(C(=O)N2CCc3ccccc3C2)cc2oc3ccccc3c21,"inconclusive: 20.6 µM [activator, single point]",
Cc1ccc(NC(=S)N/N=C/c2ccc([N+](=O)[O-])s2)cc1,inactive,
COc1cc(/C=N/OCC(=O)Nc2cc(C)on2)ccc1OCc1ccccc1,"inconclusive: 13 µM [activator, partial curve, poor fit]",
COc1cccc2c1C(=O)O/C2=C/c1ccc2c(c1)OCO2,"inconclusive: 3.26 µM [activator, partial curve]",
O=C(CN1C(=O)c2ccccc2S1(=O)=O)c1ccccc1F,"inconclusive: 2.59 µM [activator, partial curve]",
CCn1cc(C(=O)NCCCOC)c(=O)c2cc(S(=O)(=O)N(C)C3CCCCC3)ccc21,"inconclusive: 23.1 µM [inhibitor, single point]",
O=C(CN(C1CC1)S(=O)(=O)c1ccc(S(=O)(=O)N2CCCCCC2)cc1)Nc1ccccc1,"inconclusive: 32.6 µM [activator, partial curve, poor fit]",
O=C1N[C@H]2CC=C[C@H]2Nc2ccccc21,"inconclusive: 23.1 µM [activator, partial curve, poor fit]",
CC1CCCN(C(=O)COC(=O)Cn2cnc3ccccc32)C1 (stereo not drawn),inactive,
O=S(=O)(NCCc1ccccc1)c1ccccc1,"inconclusive: 20.6 µM [activator, partial curve, poor fit]",
O=C1C2C3c4ccccc4C(c4ccccc43)C2C(=O)N1Cc1cccnc1 (stereo not drawn),inactive,
Cc1ccc2c(Cl)cc(Cl)c(OCC(=O)NC(=O)NCc3ccco3)c2n1,,inconclusive: 61% [activator]
FC(F)(F)c1cc(-c2ccc(Cl)cc2)nc(NCc2cccnc2)n1,active: 20.6 µM,
C#CCOCCOCCOCCNc1nc(N2CCN(C(=O)C([C@@H](C)CC)n3cc(C(N)Cc4ccc(O)cc4)nn3)CC2)nc(N2CCN(C(=O)[C@H](CCC(=O)O)n3cc(C(N)CO)nn3)CC2)n1 (stereo partly drawn),"inconclusive: 23.1 µM [activator, partial curve, poor fit]",
Cc1ccc(CNC(=O)C(N=C2NS(=O)(=O)c3ccccc32)C(C)C)cc1 (stereo not drawn),"inconclusive: 18.3 µM [inhibitor, partial curve, poor fit]",
COCCn1nnnc1C(c1cccs1)N1CCN(c2cc(C)ccc2C)CC1 (stereo not drawn),"inconclusive: 16.4 µM [inhibitor, single point]",
CCN(Cc1nc2cc(Cl)ccc2c(=O)[nH]1)C(=O)c1cccc(NC(=O)c2cccs2)c1,active: 16.4 µM,
CCCC(=O)Nc1ccc2c(c1)nc(CN1CCN(C(C)=O)CC1)n2C,inactive,
CN(CC(=O)Nc1ccc(Cl)c(C(F)(F)F)c1)C(=O)c1ccc(OCC2CCCO2)cc1 (stereo not drawn),inactive,
CCc1nc(SCc2ccc([N+](=O)[O-])cc2)n[nH]1,"inconclusive: 23.1 µM [activator, partial curve]",
CCCN1CCC(=O)N([C@H](CSc2ccc(OC)cc2)c2ccccc2)CC1,"inconclusive: 29.1 µM [activator, single point]",
